No constants are given. Whether binding was seen depends on the method and setting. For some assays here: Binding seen in cells or lysates may run through a third protein. Some entries that bind do so weakly or less than the wild type. For some assays here: Where a sequence is shown, tags or fusion partners need not be part of it.
Experiments:
[1] = molecular target: T1, wild-type HDA6 tagged with cYFP (Arabidopsis) (UniProt Q9FML2); experiment: split reporter; BiFC; MET1-nYFP with HDA6, hda6-9 or hda6-10 tagged with cYFP, Agro-infiltrated into leaves of N. benthamiana; confocal microscopy two days later
T1 sequence: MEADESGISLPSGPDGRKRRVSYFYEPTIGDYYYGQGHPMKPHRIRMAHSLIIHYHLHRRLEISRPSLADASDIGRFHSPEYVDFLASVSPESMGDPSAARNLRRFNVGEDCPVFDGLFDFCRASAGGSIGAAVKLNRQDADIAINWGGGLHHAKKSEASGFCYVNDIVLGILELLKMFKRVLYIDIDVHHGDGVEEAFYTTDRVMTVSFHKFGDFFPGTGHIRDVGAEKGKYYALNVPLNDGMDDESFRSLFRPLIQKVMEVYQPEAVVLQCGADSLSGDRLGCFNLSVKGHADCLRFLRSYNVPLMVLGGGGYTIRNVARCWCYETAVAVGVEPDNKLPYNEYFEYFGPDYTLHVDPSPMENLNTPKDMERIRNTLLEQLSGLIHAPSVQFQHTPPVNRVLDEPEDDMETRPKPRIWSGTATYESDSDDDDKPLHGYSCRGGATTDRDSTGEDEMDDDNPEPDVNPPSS

[2] = molecular target: T2, HDA6–10 tagged with cYFP (Arabidopsis) (UniProt Q9FML2); experiment: as above
T2 sequence: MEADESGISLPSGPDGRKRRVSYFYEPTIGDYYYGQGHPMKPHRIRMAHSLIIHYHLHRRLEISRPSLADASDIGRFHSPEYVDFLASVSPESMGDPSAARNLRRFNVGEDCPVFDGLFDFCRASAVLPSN

[3] = molecular target: T3, mutated hda6–10 (1–131aa) (Arabidopsis) (UniProt Q9FML2); experiment: two-hybrid; Matchmaker Gold; HDA6 forms as baits in pGBKT7 (Y2HGold), MET1 (R2FB) as prey in pGADT7 (Y187), mating; higher stringent plates SD/-Trp/-Leu/-Ade/-His with X-alpha-gal and Aureobasidin A
T3 sequence: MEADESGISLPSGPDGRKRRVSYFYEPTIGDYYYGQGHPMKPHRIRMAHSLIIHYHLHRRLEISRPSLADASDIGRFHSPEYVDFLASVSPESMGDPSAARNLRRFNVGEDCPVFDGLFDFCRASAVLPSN

[4] = molecular target: T4, wild-type HDA6 (1–471aa) (Arabidopsis) (UniProt Q9FML2); experiment: as above
T4 sequence: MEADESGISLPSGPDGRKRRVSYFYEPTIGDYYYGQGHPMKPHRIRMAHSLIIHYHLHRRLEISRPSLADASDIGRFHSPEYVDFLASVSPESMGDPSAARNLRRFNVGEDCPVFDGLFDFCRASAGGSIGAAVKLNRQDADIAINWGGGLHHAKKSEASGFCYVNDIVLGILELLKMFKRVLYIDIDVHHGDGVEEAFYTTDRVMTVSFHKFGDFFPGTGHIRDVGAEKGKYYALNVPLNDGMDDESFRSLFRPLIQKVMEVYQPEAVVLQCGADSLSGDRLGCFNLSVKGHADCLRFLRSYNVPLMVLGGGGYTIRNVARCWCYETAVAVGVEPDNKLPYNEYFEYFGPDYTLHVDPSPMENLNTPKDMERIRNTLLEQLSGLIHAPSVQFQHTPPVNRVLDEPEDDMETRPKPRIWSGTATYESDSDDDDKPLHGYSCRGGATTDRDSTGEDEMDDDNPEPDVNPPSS

[5] = molecular target: T3, mutated hda6–10 (1–131aa) (Arabidopsis); experiment: two-hybrid; Matchmaker Gold; HDA6 forms as baits in pGBKT7 (Y2HGold), MET1 (R2FB) as prey in pGADT7 (Y187), mating; lower stringent plates SD/-Trp/-Leu with X-alpha-gal

| Molecule | binding [1] | binding [2] | binding [3] | binding [4] | binding [5] |
| --- | --- | --- | --- | --- | --- |
| full-length MET1 tagged with nYFP (from UniProt P34881 1-1534) | binds | binds |  |  |  |
| MET1 (R2FB, aa.735–869) (domain or fragment, UniProt P34881 735-869) EMVAVGGAVTLEVDDPDEMPAIYFVEYMFESTDHCKMLHGRFLQRGSMTVLGNAANERELFLTNECMTTQLKDIKGVASFEIRSRPWGHQYRKKNITADKLDWARALERKVKDLPTEYYCKSLYSPERGGFFSLP |  |  | binds | binds | binds |
